# The list shows a part of the results. The signal is at background level for most entries.
# Key:
# Assay in all cases: fluorescence intensity of antibody binding to polysaccharide-coupled beads; higher = stronger binding
# [1] = target: pneumococcal polysaccharide Pn16F
# [2] = target: pneumococcal polysaccharide Pn17A
# [3] = target: pneumococcal polysaccharide Pn17F
# [4] = target: pneumococcal polysaccharide Pn18A
# [5] = target: pneumococcal polysaccharide Pn18B
# [6] = target: pneumococcal polysaccharide Pn18C
# [7] = target: pneumococcal polysaccharide Pn18F
# [8] = target: pneumococcal polysaccharide Pn19A
# [9] = target: pneumococcal polysaccharide Pn19B
# [10] = target: pneumococcal polysaccharide Pn19C
# [11] = target: pneumococcal polysaccharide Pn19F
# [12] = target: pneumococcal polysaccharide Pn2
# [13] = antibody concentration 81.7561 ng/mL
# [14] = antibody concentration 437.17 ng/mL
# [15] = antibody concentration 2337.65 ng/mL
# [16] = antibody concentration 12500 ng/mL
# [17] = antibody concentration 0.1 ng/mL
# [18] = antibody concentration 0.534724 ng/mL
# [19] = antibody concentration 2.8593 ng/mL
# [20] = antibody concentration 15.2894 ng/mL
binder,measurement,setting,value
4-127.2 (protein) chain 1: QVQLQESGPGLVKPSETLSLTCAVSGYSVNSGHGWTWIRQSPGKGLEWIGYIGGGSGSSNYNPSLKSRVTISKDTSNNQLSLKLRSLTTADTAMYYCARRVPADRSGNDYWGQGVLVTVSS chain 2: QSVLTQPPSVSGDPGQRVTISCTGSSSNIGDYYGYWYQQFPGTAPKLLIFDDNNRPSGISDRFSGSKAGTSASLTITGLQPGDEADYYCGAWDGSLNAHVFGSGTKLTVL,fluorescence intensity,[1]; [13],23.8 MFI
same,fluorescence intensity,[1]; [14],23.5 MFI
same,fluorescence intensity,[1]; [15],29.8 MFI
same,fluorescence intensity,[1]; [16],33.2 MFI
same,fluorescence intensity,[2]; [17],21 MFI
same,fluorescence intensity,[2]; [18],21 MFI
same,fluorescence intensity,[2]; [19],20.5 MFI
same,fluorescence intensity,[2]; [20],19.5 MFI
same,fluorescence intensity,[2]; [13],20.5 MFI
same,fluorescence intensity,[2]; [14],20 MFI
same,fluorescence intensity,[2]; [15],20.5 MFI
same,fluorescence intensity,[2]; [16],25 MFI
same,fluorescence intensity,[3]; [17],25.5 MFI
same,fluorescence intensity,[3]; [18],25 MFI
same,fluorescence intensity,[3]; [19],25 MFI
same,fluorescence intensity,[3]; [20],23.8 MFI
same,fluorescence intensity,[3]; [13],24.5 MFI
same,fluorescence intensity,[3]; [14],25.5 MFI
same,fluorescence intensity,[3]; [15],26.5 MFI
same,fluorescence intensity,[3]; [16],30.8 MFI
same,fluorescence intensity,[4]; [17],23 MFI
same,fluorescence intensity,[4]; [18],23.5 MFI
same,fluorescence intensity,[4]; [19],23 MFI
same,fluorescence intensity,[4]; [20],22 MFI
same,fluorescence intensity,[4]; [13],22 MFI
same,fluorescence intensity,[4]; [14],24.5 MFI
same,fluorescence intensity,[4]; [15],25.5 MFI
same,fluorescence intensity,[4]; [16],33 MFI
same,fluorescence intensity,[5]; [17],29 MFI
same,fluorescence intensity,[5]; [18],29 MFI
same,fluorescence intensity,[5]; [19],30 MFI
same,fluorescence intensity,[5]; [20],28.5 MFI
same,fluorescence intensity,[5]; [13],30.5 MFI
same,fluorescence intensity,[5]; [14],30 MFI
same,fluorescence intensity,[5]; [15],33.5 MFI
same,fluorescence intensity,[5]; [16],39.5 MFI
same,fluorescence intensity,[6]; [17],16.8 MFI
same,fluorescence intensity,[6]; [18],17.8 MFI
same,fluorescence intensity,[6]; [19],17.5 MFI
same,fluorescence intensity,[6]; [20],17 MFI
same,fluorescence intensity,[6]; [13],17.5 MFI
same,fluorescence intensity,[6]; [14],23 MFI
same,fluorescence intensity,[6]; [15],26 MFI
same,fluorescence intensity,[6]; [16],32.5 MFI
same,fluorescence intensity,[7]; [17],23 MFI
same,fluorescence intensity,[7]; [18],21.8 MFI
same,fluorescence intensity,[7]; [19],23 MFI
same,fluorescence intensity,[7]; [20],21.5 MFI
same,fluorescence intensity,[7]; [13],22.5 MFI
same,fluorescence intensity,[7]; [14],24.5 MFI
same,fluorescence intensity,[7]; [15],29 MFI
same,fluorescence intensity,[7]; [16],34.2 MFI
same,fluorescence intensity,[8]; [17],17 MFI
same,fluorescence intensity,[8]; [18],16.2 MFI
same,fluorescence intensity,[8]; [19],18 MFI
same,fluorescence intensity,[8]; [20],17.5 MFI
same,fluorescence intensity,[8]; [13],19 MFI
same,fluorescence intensity,[8]; [14],18.2 MFI
same,fluorescence intensity,[8]; [15],19.5 MFI
same,fluorescence intensity,[8]; [16],31 MFI
same,fluorescence intensity,[9]; [17],28.5 MFI
same,fluorescence intensity,[9]; [18],28.2 MFI
same,fluorescence intensity,[9]; [19],27.5 MFI
same,fluorescence intensity,[9]; [20],28 MFI
same,fluorescence intensity,[9]; [13],28.2 MFI
same,fluorescence intensity,[9]; [14],28.5 MFI
same,fluorescence intensity,[9]; [15],48.2 MFI
same,fluorescence intensity,[9]; [16],328 MFI
same,fluorescence intensity,[10]; [17],25 MFI
same,fluorescence intensity,[10]; [18],24.5 MFI
same,fluorescence intensity,[10]; [19],24 MFI
same,fluorescence intensity,[10]; [20],24.5 MFI
same,fluorescence intensity,[10]; [13],23.8 MFI
same,fluorescence intensity,[10]; [14],24 MFI
same,fluorescence intensity,[10]; [15],37.5 MFI
same,fluorescence intensity,[10]; [16],200 MFI
same,fluorescence intensity,[11]; [17],24 MFI
same,fluorescence intensity,[11]; [18],23.8 MFI
same,fluorescence intensity,[11]; [19],24.8 MFI
same,fluorescence intensity,[11]; [20],24 MFI
same,fluorescence intensity,[11]; [13],25.8 MFI
same,fluorescence intensity,[11]; [14],30 MFI
same,fluorescence intensity,[11]; [15],34 MFI
same,fluorescence intensity,[11]; [16],41.8 MFI
same,fluorescence intensity,[12]; [17],20.2 MFI
same,fluorescence intensity,[12]; [18],19 MFI
same,fluorescence intensity,[12]; [19],19.5 MFI
same,fluorescence intensity,[12]; [20],18 MFI
same,fluorescence intensity,[12]; [13],19.5 MFI
same,fluorescence intensity,[12]; [14],19.5 MFI

# Some of the entries above, set out differently.
binder	measurement	setting	value
4-127.2 (protein) chain 1: QVQLQESGPGLVKPSETLSLTCAVSGYSVNSGHGWTWIRQSPGKGLEWIGYIGGGSGSSNYNPSLKSRVTISKDTSNNQLSLKLRSLTTADTAMYYCARRVPADRSGNDYWGQGVLVTVSS chain 2: QSVLTQPPSVSGDPGQRVTISCTGSSSNIGDYYGYWYQQFPGTAPKLLIFDDNNRPSGISDRFSGSKAGTSASLTITGLQPGDEADYYCGAWDGSLNAHVFGSGTKLTVL	fluorescence intensity	[1]; [13]	23.8 MFI
same	fluorescence intensity	[2]; [17]	21 MFI
same	fluorescence intensity	[2]; [20]	19.5 MFI
same	fluorescence intensity	[2]; [15]	20.5 MFI
same	fluorescence intensity	[3]; [19]	25 MFI
same	fluorescence intensity	[3]; [20]	23.8 MFI
same	fluorescence intensity	[3]; [13]	24.5 MFI
same	fluorescence intensity	[3]; [15]	26.5 MFI
same	fluorescence intensity	[4]; [20]	22 MFI
same	fluorescence intensity	[4]; [15]	25.5 MFI
same	fluorescence intensity	[5]; [20]	28.5 MFI
same	fluorescence intensity	[6]; [17]	16.8 MFI
same	fluorescence intensity	[7]; [18]	21.8 MFI
same	fluorescence intensity	[7]; [20]	21.5 MFI
same	fluorescence intensity	[7]; [13]	22.5 MFI
same	fluorescence intensity	[7]; [14]	24.5 MFI
same	fluorescence intensity	[8]; [20]	17.5 MFI
same	fluorescence intensity	[9]; [14]	28.5 MFI
same	fluorescence intensity	[10]; [17]	25 MFI
same	fluorescence intensity	[10]; [18]	24.5 MFI
same	fluorescence intensity	[10]; [20]	24.5 MFI
same	fluorescence intensity	[10]; [16]	200 MFI
same	fluorescence intensity	[11]; [17]	24 MFI
same	fluorescence intensity	[11]; [13]	25.8 MFI
same	fluorescence intensity	[12]; [18]	19 MFI
